Source: patent publication US8329950B2, “Process for preparation of trans 4-(3,4-Dichlorophenyl)-1,2,3,4-tetrahydro-1Napthalenamine” (Sunovion Pharmaceuticals Inc., priority 2005, dated 2012)

Test system: mice
Test: Behavioral Despair Test (Porsolt swim test) in mice
Type: in vivo

Compound: CN(C)CCCN1c2ccccc2CCc2ccccc21 [imipramine]
- Dunnett test vs vehicle, immobility duration (10 mg/kg): * (* indicates a significant difference vs vehicle for P < 0.05 (Dunnett test))

Compound: N[C@@H]1CC[C@@H](c2ccc(Cl)c(Cl)c2)c2ccccc21 [P, (1R,4S)-trans 4-(3,4-dichlorophenyl)-1,2,3,4-tetrahydro-1-napthalenamine]
- Dunnett test vs vehicle, immobility duration (0.03 mg/kg intraperitoneal): ns
- Dunnett test vs vehicle, immobility duration (0.1 mg/kg intraperitoneal): * (* indicates a significant difference vs vehicle for P < 0.05 (Dunnett test))
- Dunnett test vs vehicle, immobility duration (0.3 mg/kg intraperitoneal): * (* indicates a significant difference vs vehicle for P < 0.05 (Dunnett test))
- Dunnett test vs vehicle, immobility duration (1 mg/kg intraperitoneal): * (* indicates a significant difference vs vehicle for P < 0.05 (Dunnett test))
- Dunnett test vs vehicle, immobility duration (3 mg/kg intraperitoneal): * (* indicates a significant difference vs vehicle for P < 0.05 (Dunnett test))
